{"sequences": {"note": "Chains of the proteins cited; added tags and fusions are not shown. Lines headed by an entry give the natural chain unless they say otherwise; changes in a name come on top.", "UniProt P49698": "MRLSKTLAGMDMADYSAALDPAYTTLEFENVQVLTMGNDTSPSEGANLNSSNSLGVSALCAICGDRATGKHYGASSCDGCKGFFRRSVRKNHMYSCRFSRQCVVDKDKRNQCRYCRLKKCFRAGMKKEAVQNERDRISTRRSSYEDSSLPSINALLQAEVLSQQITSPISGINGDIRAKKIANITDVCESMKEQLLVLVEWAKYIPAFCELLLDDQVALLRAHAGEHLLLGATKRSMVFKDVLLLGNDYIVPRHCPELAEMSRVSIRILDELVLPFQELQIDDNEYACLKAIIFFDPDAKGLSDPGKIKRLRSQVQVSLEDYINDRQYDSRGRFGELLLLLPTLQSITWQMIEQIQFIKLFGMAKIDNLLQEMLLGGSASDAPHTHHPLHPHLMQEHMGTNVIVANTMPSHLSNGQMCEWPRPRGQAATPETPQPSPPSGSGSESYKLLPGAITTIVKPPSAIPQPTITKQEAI", "UniProt Q06831": "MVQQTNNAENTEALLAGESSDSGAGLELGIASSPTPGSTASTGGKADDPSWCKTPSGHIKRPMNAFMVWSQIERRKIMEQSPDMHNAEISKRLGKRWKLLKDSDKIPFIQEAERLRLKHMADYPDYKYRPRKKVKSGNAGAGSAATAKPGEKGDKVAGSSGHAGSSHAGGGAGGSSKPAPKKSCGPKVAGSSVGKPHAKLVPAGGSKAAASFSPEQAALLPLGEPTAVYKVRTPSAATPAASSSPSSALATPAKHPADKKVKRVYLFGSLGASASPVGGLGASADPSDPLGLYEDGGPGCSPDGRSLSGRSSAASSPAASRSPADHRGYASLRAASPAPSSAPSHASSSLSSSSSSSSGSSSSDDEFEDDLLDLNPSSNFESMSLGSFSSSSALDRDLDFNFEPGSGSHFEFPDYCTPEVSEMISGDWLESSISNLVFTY"}, "source": "paper PMC10897393", "key": {"[1]": {"target": "MYC-FLAG-HNF4A (Mus musculus) (UniProt P49698)", "assay": "EMSA", "details": "HNF4A bound specifically to the WT site; EMSA: 10 mM Tris-HCl pH 7.5, 1 mM MgCl2, 1 mM DTT, 50 mM KCl, 0.3 mg/ml BSA, 5% glycerol, RT 30 min; 5% native PAGE in 0.5x TBE; commercial protein; protein details: MYC-FLAG; label: Cy5 5'-end"}, "FLAG-SOX4 (Mus musculus)": {"target": "FLAG-SOX4 (Mus musculus) (UniProt Q06831)", "assay": "EMSA", "details": "marked specificity for the WT site; EMSA: 10 mM Tris-HCl pH 7.5, 1 mM MgCl2, 1 mM DTT, 50 mM KCl, 0.3 mg/ml BSA, 5% glycerol, RT 30 min; 5% native PAGE in 0.5x TBE; recombinant protein; protein details: N-terminal FLAG (MDYKDDDDK); label: Cy5 5'-end"}}, "note": "The exact form of at least one protein or probe is not confirmed. The comparison behind a weaker result is the experiment's own reference, which may not be listed here. At least one verdict was read from the data and is not stated in words by the source."}
{"sequence": "ATCTCTGAATCATAGAGAGGAGAAG (double strand) [Cyp2e1 distal enhancer mutant (scrambled HNF4A motif)]", "values": [{"measurement": "binding result", "setting": "[1]", "result": "binds more weakly"}, {"measurement": "binding result", "setting": "FLAG-SOX4 (Mus musculus)", "result": "binds more weakly"}]}
